According to publication PMC9779997:
Results are given in words; binding and its absence hold for the method and conditions named. Binding seen in cells or lysates may run through a third protein. These calls come from enrichment with a bait or labelling near it, and not all partners need be listed.

The chains behind the UniProt entries cited, without tags or fusion partners.
UniProt P51685: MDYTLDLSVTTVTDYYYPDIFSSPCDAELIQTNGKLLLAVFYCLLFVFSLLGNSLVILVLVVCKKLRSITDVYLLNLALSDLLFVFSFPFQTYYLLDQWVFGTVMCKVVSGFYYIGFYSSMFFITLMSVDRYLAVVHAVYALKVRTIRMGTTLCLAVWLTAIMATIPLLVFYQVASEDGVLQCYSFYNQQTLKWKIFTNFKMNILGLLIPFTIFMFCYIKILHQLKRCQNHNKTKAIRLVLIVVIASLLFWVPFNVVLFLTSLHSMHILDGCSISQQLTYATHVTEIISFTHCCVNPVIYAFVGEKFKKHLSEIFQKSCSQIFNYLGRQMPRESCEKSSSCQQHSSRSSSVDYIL
UniProt Q8IX90: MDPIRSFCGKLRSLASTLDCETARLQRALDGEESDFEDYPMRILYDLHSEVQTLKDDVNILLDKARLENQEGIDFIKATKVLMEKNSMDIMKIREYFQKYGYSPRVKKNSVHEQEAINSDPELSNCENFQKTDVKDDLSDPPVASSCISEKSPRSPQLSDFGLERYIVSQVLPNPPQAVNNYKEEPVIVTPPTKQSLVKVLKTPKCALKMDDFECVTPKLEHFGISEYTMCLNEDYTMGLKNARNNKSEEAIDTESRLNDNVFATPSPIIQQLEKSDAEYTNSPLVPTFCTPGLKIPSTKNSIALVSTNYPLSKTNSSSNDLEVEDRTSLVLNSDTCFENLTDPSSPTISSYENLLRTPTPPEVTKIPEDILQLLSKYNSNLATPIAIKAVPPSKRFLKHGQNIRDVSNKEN

T1: Ubiquitin-specific protease 2 (human (endogenous in H1299 and A549)) (UniProt O75604)
T1 sequence: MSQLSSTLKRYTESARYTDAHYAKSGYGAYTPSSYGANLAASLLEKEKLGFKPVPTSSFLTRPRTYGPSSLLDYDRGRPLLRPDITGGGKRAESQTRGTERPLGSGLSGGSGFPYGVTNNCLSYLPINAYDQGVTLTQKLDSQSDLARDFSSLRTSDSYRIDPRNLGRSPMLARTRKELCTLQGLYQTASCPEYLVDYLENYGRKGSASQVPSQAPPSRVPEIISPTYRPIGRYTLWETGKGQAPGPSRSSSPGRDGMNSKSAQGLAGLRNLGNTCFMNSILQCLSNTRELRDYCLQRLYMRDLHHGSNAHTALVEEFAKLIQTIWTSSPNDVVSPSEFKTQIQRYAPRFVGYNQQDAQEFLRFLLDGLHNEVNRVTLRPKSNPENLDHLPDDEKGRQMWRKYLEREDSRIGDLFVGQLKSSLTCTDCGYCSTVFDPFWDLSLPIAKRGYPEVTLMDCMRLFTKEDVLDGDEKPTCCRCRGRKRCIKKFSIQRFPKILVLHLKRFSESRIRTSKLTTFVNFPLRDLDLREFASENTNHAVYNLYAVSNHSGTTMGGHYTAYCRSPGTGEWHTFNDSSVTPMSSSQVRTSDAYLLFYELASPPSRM

B1: RTEL1 (protein, UniProt Q9NZ71 1-1219)
chain: MPKIVLNGVTVDFPFQPYKCQQEYMTKVLECLQQKVNGILESPTGTGKTLCLLCTTLAWREHLRDGISARKIAERAQGELFPDRALSSWGNAAAAAGDPIACYTDIPKIIYASRTHSQLTQVINELRNTSYRPKVCVLGSREQLCIHPEVKKQESNHLQIHLCRKKVASRSCHFYNNVEEKSLEQELASPILDIEDLVKSGSKHRVCPYYLSRNLKQQADIIFMPYNYLLDAKSRRAHNIDLKGTVVIFDEAHNVEKMCEESASFDLTPHDLASGLDVIDQVLEEQTKAAQQGEPHPEFSADSPSPGLNMELEDIAKLKMILLRLEGAIDAVELPGDDSGVTKPGSYIFELFAEAQITFQTKGCILDSLDQIIQHLAGRAGVFTNTAGLQKLADIIQIVFSVDPSEGSPGSPAGLGALQSYKVHIHPDAGHRRTAQRSDAWSTTAARKRGKVLSYWCFSPGHSMHELVRQGVRSLILTSGTLAPVSSFALEMQIPFPVCLENPHIIDKHQIWVGVVPRGPDGAQLSSAFDRRFSEECLSSLGKALGNIARVVPYGLLIFFPSYPVMEKSLEFWRARDLARKMEALKPLFVEPRSKGSFSETISAYYARVAAPGSTGATFLAVCRGKASEGLDFSDTNGRGVIVTGLPYPPRMDPRVVLKMQFLDEMKGQGGAGGQFLSGQEWYRQQASRAVNQAIGRVIRHRQDYGAVFLCDHRFAFADARAQLPSWVRPHVRVYDNFGHVIRDVAQFFRVAERTMPAPAPRATAPSVRGEDAVSEAKSPGPFFSTRKAKSLDLHVPSLKQRSSGSPAAGDPESSLCVEYEQEPVPARQRPRGLLAALEHSEQRAGSPGEEQAHSCSTLSLLSEKRPAEEPRGGRKKIRLVSHPEEPVAGAQTDRAKLFMVAVKQELSQANFATFTQALQDYKGSDDFAALAACLGPLFAEDPKKHNLLQGFYQFVRPHHKQQFEEVCIQLTGRGCGYRPEHSIPRRQRAQPVLDPTGRTAPDPKLTVSTAAAQQLDPQEHLNQGRPHLSPRPPPTGDPGSQPQWGSGVPRAGKQGQHAVSAYLADARRALGSAGCSQLLAALTAYKQDDDLDKVLAVLAALTTAKPEDFPLLHRFSMFVRPHHKQRFSQTCTDLTGRPYPGMEPPGPQEERLAVPPVLTHRAPQPGPSRSEKTGKTQSKISSFLRQRPAGTVGAGGEDAGPSQSSGPPHGPAASEWGL
B2: NPIPA3 (protein, UniProt F8WFD2 1-350)
chain: MFCCLGYEWLSGGCKTWHSAWVINTLADHRHRGTDFGGSPWLLIITVFLRSYKFAISLCTSYLCVSFLKTIFPSQNGHDGSTDVQQRARRSNRRRQEGIKIVLEDIFTLWRQVETKVRAKICKMKVTTKVNRHDKINGKRKTAKEHLRKLSMKEREHGEKERQVSEAEENGKLDMKEIHTYMEMFQRAQALRRRAEDYYRCKITPSARKPLCNRVRMAAAEHRHSSGLPYWPYLTAETLKNRMGHQPPPPTQQHSIIDNSLSLKTPPECLLTPLPPSALPSADDNLKTPAECLLYPLPPSADDNLKTPPECLLTPLPPSAPPSVDDNLKTPPKCVCSLPFHPQRMIISRN

Each molecule was assayed against T1, Ubiquitin-specific protease 2 (human (endogenous in H1299 and A549)) (assay: affinity purification with mass spectrometry; H1299 cell proteins immunoprecipitated with anti-USP2 antibody or control IgG, SDS-PAGE, LC-MS/MS (LTQ Orbitrap Elite)).

binding, binds:
CCR8 (from UniProt P51685 1-355) (receptor)
SKA3 (from UniProt Q8IX90 1-412)
B1
B2
